# Test results as given in the supplement of paper PMC4807443.
# Structures can show the parent of a compound that is named as a salt. The list shows a part of the results. The numbers are fractions of the control, whatever unit the source prints. Most values lie at the level of the controls, where differences are scatter.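 MIN6 is a mouse insulinoma beta-cell line that stably carries a lentiviral reporter in which the Pdx1 and Ins1 promoters each drive a nucleus-targeted fluorescent protein; cells were counted by automated imaging with a Hoechst nuclear stain. In the screen, a drug was a possible hit when its Ins1 promoter readout lay beyond two median absolute deviations from the DMSO controls while Pdx1 activity stayed near normal.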
# Test system: MIN6
# Test: % Pdx1+ Ins1+ (double-positive, mature) cells relative to DMSO control (fold of DMSO control); higher = more mature Ins1 promoter-active cells
# Conditions: 8.5 µM; 48 h; glucose 5 mM
row,SMILES,% Pdx1+ Ins1+
1,O=C(O)CCCc1ccc(N(CCCl)CCCl)cc1 [Chlorambucil],0.927
2,CCCN1C[C@H](CSC)C[C@@H]2c3cccc4[nH]cc(c34)C[C@H]21 [Pergolide mesylate],0.905
3,CCCCc1ccc(C(=O)O)nc1 [Fusaric acid],0.857
4,"CC[C@@]1(O)C(=O)OCc2c1cc1n(c2=O)Cc2cc3ccccc3nc2-1 [Camptothecine (S,+)]",0.328
5,CCC(=O)O[C@@](Cc1ccccc1)(c1ccccc1)[C@@H](C)CN(C)C [Levopropoxyphene napsylate],0.971
6,CN1C[C@H](C(=O)N[C@]2(C)O[C@@]3(O)[C@@H]4CCCN4C(=O)[C@H](Cc4ccccc4)N3C2=O)C[C@@H]2c3cccc4[nH]cc(c34)C[C@H]21 [Dihydroergotamine tartrate],0.969
7,C[N+]1(C)[C@@H]2CC[C@H]1C[C@@H](OC(=O)C(CO)c1ccccc1)C2 (some centres undefined) [Methylatropine nitrate],1.01
8,C[N+](C)(C)CCCCCCCCCC[N+](C)(C)C [Decamethonium bromide],0.933
9,c1ccc2nc(N3CCNCC3)ccc2c1 [Quipazine dimaleate salt],0.881
10,CCC1(CC)C(=O)C=CNC1=O [Pyrithyldione],0.887
11,C[C@@H]1NCCc2cc(O)c(O)cc21 [Salsolinol hydrobromide],0.914
12,COc1ccc(Cc2nccc3cc(OC)c(OC)cc23)cc1OC [Papaverine hydrochloride],0.921
13,COC(=O)C1=CCCN(C)C1 [Arecoline hydrobromide],0.776
14,CC(C)(C)NCC(O)c1cc(Cl)c(N)c(Cl)c1 (centres undefined) [Clenbuterol hydrochloride],0.908
15,Fc1ccc(C(OCCN2CCN(CCCc3ccccc3)CC2)c2ccc(F)cc2)cc1,0.698
16,COc1ccc(CCN2CCC(Nc3nc4ccccc4n3Cc3ccc(F)cc3)CC2)cc1 [Astemizole],0.253
17,CC(=O)O[C@H]1C[C@H](O[C@H]2[C@@H](O)C[C@H](O[C@H]3[C@@H](O)C[C@H](O[C@H]4CC[C@@]5(C)[C@H](CC[C@@H]6[C@@H]5C[C@@H](O)[C@]5(C)[C@@H](C7=CC(=O)OC7)CC[C@]65O)C4)O[C@@H]3C)O[C@@H]2C)O[C@H](C)[C@H]1O[C@@H]1O[C@H](CO)[C@@H](O)[C@H](O)[C@H]1O [Lanatoside C],0.928
18,CN1C[C@H](CO)C=C2c3cccc4[nH]cc(c34)C[C@H]21 [Lysergol],0.603
19,C/C=C1\C[C@@H](C)[C@](O)(CO)C(=O)OCC2=CCN3CC[C@@H](OC1=O)[C@@H]23 [Retrorsine],0.869
20,CC1=C2[C@H]3OC(=O)[C@@H](C)[C@@H]3CC[C@@]2(C)C=CC1=O [alpha-Santonin],0.823
21,O[C@@H]1CCCC[C@H]1N1CCC(c2ccccc2)CC1 [L(-)-vesamicol hydrochloride],0.9
22,C[C@]12N[C@H](Cc3ccccc31)c1ccccc12 [Dizocilpine maleate],1.05
23,C[N+]1([O-])[C@@H]2C[C@@H](OC(=O)[C@H](CO)c3ccccc3)C[C@H]1[C@@H]1O[C@@H]12 (some centres undefined) [Scopolamin-N-oxide hydrobromide],1.1

row,SMILES,% Pdx1+ Ins1+
1,c1cncc(C2=NCCC2)c1 [Myosmine],0.926
2,Cc1nccc2c1[nH]c1ccccc12 [Harmane hydrochloride],0.94
3,CCN1C[C@]2(COC)[C@H](O)C[C@H](OC)[C@@]34[C@@H]5C[C@@]6(O)[C@H](OC(=O)c7ccccc7)[C@@H]5[C@@](OC(C)=O)([C@@H]([C@H](OC)[C@H]23)[C@@H]14)[C@@H](O)[C@@H]6OC [Aconitine],0.938
4,O=[N+]([O-])c1cc([As](=O)(O)O)ccc1O [Roxarsone],0.978
5,CC[C@@]1([C@@H]2O[C@@H]([C@H]3O[C@@](O)(CO)[C@H](C)C[C@@H]3C)C[C@@H]2C)CC[C@H]([C@]2(C)CC[C@]3(C[C@H](O)[C@@H](C)[C@@H]([C@@H](C)[C@@H](OC)[C@H](C)C(=O)O)O3)O2)O1 [Monensin sodium salt],0.351
6,"CCC1(c2ccc(N)cc2)CCC(=O)NC1=O (centres undefined) [Glutethimide, para-amino]",0.984
7,CCn1cc(C(=O)O)c(=O)c2cc3c(cc21)OCO3 [Oxolinic acid],1.14
8,C[C@]12CC[C@H](O)C[C@@H]1CC[C@@H]1[C@@H]2CC[C@]2(C)C(=O)CC[C@@H]12 [Epiandrosterone],0.829
9,CN(C)C(=O)Oc1cc(OC(=O)N(C)C)cc(C(O)CNC(C)(C)C)c1 (centres undefined) [Bambuterol hydrochloride],0.928
10,"NCC(O)c1ccc(O)cc1 (racemic) [(+,-)-Octopamine hydrochloride]",0.81
11,COc1ccc2c3c([nH]c2c1)C(C)=NCC3 [Harmaline hydrochloride dihydrate],0.76
12,CN1[C@@H]2CC[C@H]1C[C@@H](OC1c3ccccc3CCc3ccccc31)C2 [Deptropine citrate],0.831
13,C[C@@H]1O[C@@H](O[C@H]2C[C@@H](O)[C@]3(CO)[C@H]4[C@H](O)C[C@]5(C)[C@@H](C6=CC(=O)OC6)CC[C@]5(O)[C@@H]4CC[C@]3(O)C2)[C@H](O)[C@H](O)[C@H]1O [Strophantine octahydrate],1.07
14,C[C@]12CC[C@H](O)C[C@H]1CC[C@@H]1[C@@H]2C[C@@H](O)[C@]2(C)[C@@H](C3=CC(=O)OC3)CC[C@]12O [Digoxigenin],0.893
15,CC(Cc1ccccc1)NCCC(c1ccccc1)c1ccccc1 (centres undefined) [Prenylamine lactate],0.847
16,CC(=O)NC1CCSC1=O (racemic) [N-Acetyl-DL-homocysteine Thiolactone],0.856
17,Clc1ccc(C(OCCN2CCCCC2)c2ccccc2)cc1 (centres undefined) [Cloperastine hydrochloride],0.905
18,CNCC(O)c1ccc(O)c(OC)c1 (stereo not drawn) [Metanephrine hydrochloride DL],1.1
19,COc1cc2c(c(OC)c1OC)-c1ccc(O)c(=O)cc1[C@@H](N)CC2 [Trimethylcolchicinic acid],0.941
20,Cc1cccc(C)c1NC1=NCCCS1 [Xylazine],0.679
21,CC(C)c1c(CN(C)C(C)Cc2ccccc2)n(C)n(-c2ccccc2)c1=O (centres undefined) [Famprofazone],0.934
22,C=C(C)[C@@H]1[C@H]2OC(=O)[C@@H]1[C@]1(O)C[C@H]3O[C@]34C(=O)O[C@H]2[C@]14C [Picrotoxinin],0.908
23,CO[C@H](C)[C@](O)(C(=O)OCC1=CCN2CC[C@H](O)[C@@H]12)C(C)C [Heliotrine],0.929

# Among those listed so far, five have an aryl methoxy group:
row,SMILES,% Pdx1+ Ins1+
12,COc1ccc(Cc2nccc3cc(OC)c(OC)cc23)cc1OC [Papaverine hydrochloride],0.921
16,COc1ccc(CCN2CCC(Nc3nc4ccccc4n3Cc3ccc(F)cc3)CC2)cc1 [Astemizole],0.253
11,COc1ccc2c3c([nH]c2c1)C(C)=NCC3 [Harmaline hydrochloride dihydrate],0.76
18,CNCC(O)c1ccc(O)c(OC)c1 (stereo not drawn) [Metanephrine hydrochloride DL],1.1
19,COc1cc2c(c(OC)c1OC)-c1ccc(O)c(=O)cc1[C@@H](N)CC2 [Trimethylcolchicinic acid],0.941

# Remaining list, next part.

row,SMILES,% Pdx1+ Ins1+
1,O=P1(NCCCl)OCCCN1CCCl (centres undefined) [Ifosfamide],0.967
2,COc1cc2c(cc1OC)C(C)NCC2 (centres undefined),0.872
3,NC(=O)CN1CCCC1=O [Piracetam],0.913
4,CC(=O)OCC(=O)[C@H]1CC[C@H]2[C@@H]3CC[C@H]4C[C@H](O)CC[C@]4(C)[C@H]3C(=O)C[C@]12C [Alfadolone acetate],1.02
5,Cc1c2ccncc2c(C)c2c1[nH]c1ccccc12 [Ellipticine],0.769
6,C=C[C@]12CN(C)[C@@H]3[C@H]4CO[C@H](C[C@H]41)[C@]1(C(=O)Nc4ccccc41)[C@@H]32 [Gelsemine],0.921
7,"CC(=O)OCC1=C(C(=O)O)N2C(=O)[C@@H](N)[C@H]2SC1 [Cephalosporanic acid, 7-amino]",0.933
8,COC1=C[C@@H]2C3=C([C@@H]2C1=O)[C@@H](NC(C)=O)CCc1cc(OC)c(OC)c(OC)c13 [Lumicolchicine gamma],0.942
9,CO[C@]12C[C@@H](COC(=O)c3cncc(Br)c3)CN(C)[C@@H]1Cc1cn(C)c3cccc2c13 [Nicergoline],1.13
10,C[C@H]1C(=O)O[C@@H]2CCN3CC=C(COC(=O)[C@](C)(O)[C@]1(C)O)[C@H]23 [Monocrotaline],0.963
11,C[N+]12CCC(CC1)C(OC(=O)C(O)(c1ccccc1)c1ccccc1)C2 (centres undefined) [Clidinium bromide],0.882
12,CCN1C[C@]2(COC)CC[C@H](O)[C@@]34C5C[C@@H]6[C@@H](OC)C[C@](O)(C(CC23)C14)C5[C@H]6OC(C)=O (some centres undefined) [Condelphine],1.07
13,COc1cc([C@@H]2c3cc4c(cc3[C@H](O)[C@H]3COC(=O)[C@H]23)OCO4)cc(OC)c1OC [Podophyllotoxin],0.502
14,CC[C@H]1CN2CCc3cc(OC)c(OC)cc3[C@@H]2C[C@@H]1C[C@H]1NCCc2cc(OC)c(OC)cc21 [Emetine dihydrochloride],0.72
15,C[C@@H]1CC[C@H]2[C@@H](C)C(=O)O[C@@H]3O[C@@]4(C)CC[C@@H]1[C@]32OO4 [Artemisinin],0.918
16,CC[C@H]1[C@@H]2C[C@H]3[C@@H]4N(C)c5ccccc5[C@]45C[C@@H]([C@@H]2[C@H]5O)N3[C@@H]1O [Ajmaline],1.07
17,CS(=N)(=O)CC[C@H](N)C(=O)O (some centres undefined) [Methionine sulfoximine (L)],0.96
18,CCC1(c2cccc(O)c2)CCCCN(C)C1 (centres undefined) [Meptazinol hydrochloride],0.781
19,CCNC1(c2cccs2)CCCCC1=O (centres undefined) [Tiletamine hydrochloride],1.01
20,COc1ccc2c(c1)[nH]c1c(C)nccc12 [Harmine hydrochloride],0.865
21,COc1ccc(C[C@H]2NC[C@H](O)[C@H]2OC(C)=O)cc1 [Anisomycin],0.483
22,CN1[C@@H](C[C@@H](O)c2ccccc2)CCC[C@H]1C[C@H](O)c1ccccc1 [Lobelanidine hydrochloride],0.957
23,NCCc1c[nH]c2ccc(O)cc12 [Serotonin hydrochloride],0.859
